Assay results taken from patent US20250368744A1 (CONCEPT TO MEDICINE BIOTECH, published 2025).
Changes are numbered by the printed parent chain. These are yes or no findings as the source states them, for the method shown. Some binding calls cover weakened binding; strength is not graded here.

Amino acid sequences for entries named in this document (tags omitted). A change or cut given only in a name is not applied to a line headed by its entry. Chains listed by the source or under a name are the forms on record and can include a tag or linker.
cyno CCR8 (G7NYJ2, form named): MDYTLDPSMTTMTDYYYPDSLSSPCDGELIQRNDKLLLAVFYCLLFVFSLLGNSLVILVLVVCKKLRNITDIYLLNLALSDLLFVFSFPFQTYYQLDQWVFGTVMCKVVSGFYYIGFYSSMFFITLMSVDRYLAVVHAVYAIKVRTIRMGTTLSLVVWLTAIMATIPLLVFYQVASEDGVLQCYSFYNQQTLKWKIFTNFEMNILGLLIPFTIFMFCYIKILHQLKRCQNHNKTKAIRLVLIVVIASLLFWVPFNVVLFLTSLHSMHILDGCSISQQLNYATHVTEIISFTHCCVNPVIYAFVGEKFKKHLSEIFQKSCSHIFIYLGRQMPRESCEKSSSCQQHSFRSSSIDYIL

B1: Hu195H8D10-5 (antibody, V domains shown)
VH: EVQLVESGGGLVQPGGSLRLSCAASGFNFNTYVMNWVRQAPGKGLEWVARIRTKSNNYATYYADSVKDRFTISRDDSKNSLYLQMNSLKTEDTAVYYCVSGTITRLGGGLDYWGQGTLVTVSS
VL: DIVMTQSPLSLPVTPGEPASISCRSSKRLLHSNGNTYLYWYLQKPGQSPQLLIYRMSNLASGVPDRFSGSGSGTDFTLKISRVEAEDVGVYYCMQHLEYPFTFGGGTKLEIK
notes: humanized
B2: Hu195H8D10-7 (antibody, V domains shown)
VH: B1 VH
VL: B1 VL with D75A
notes: humanized
B3: Hu195H8D10-8 (antibody, V domains shown)
VH: B1 VH
VL: B1 VL with Y41F, D75A
notes: humanized
B4: Hu195H8D10-16 (antibody, V domains shown)
VH: B1 VH with K78E, N79S, V95M
VL: B1 VL with Y41F, D75A
notes: humanized
B5: Hu200C9B9-3 (antibody, V domains shown)
VH: B1 VH with N28S, A49G, Y61F, A63V, V99A, S100R, G108A
VL: B1 VL with R28S, D75A
notes: humanized
B6: Hu200C9B9-16 (antibody, V domains shown)
VH: B1 VH with N28S, E46N, Y61F, A63V, K78E, G108A
VL: B1 VL with R28S, Y41F, D75A
notes: humanized
B7: Hu195H8D10-14 (antibody, V domains shown)
VH: B1 VH with K78E, N79S, V95M
VL: B1 VL with Y41F
notes: humanized
B8: Hu195H8D10-10 (antibody, V domains shown)
VH: B1 VH with N79S
VL: B1 VL with Y41F
notes: humanized
B9: Hu200C9B9-10 (antibody, V domains shown)
VH: B1 VH with N28S, E46N, Y61F, A63V, G108A
VL: B1 VL with R28S, Y41F
notes: humanized
B10: Hu195H8D10-3 (antibody, V domains shown)
VH: B1 VH with A49G, V99A, S100R
VL: B1 VL with D75A
notes: humanized
B11: Hu200C9B9-6 (antibody, V domains shown)
VH: B1 VH with N28S, Y61F, A63V, G108A
VL: B1 VL with R28S, Y41F
notes: humanized
B12: Hu195H8D10-6 (antibody, V domains shown)
VH: B1 VH
VL: B1 VL with Y41F
notes: humanized
B13: Hu200C9B9-14 (antibody, V domains shown)
VH: B1 VH with N28S, E46N, Y61F, A63V, K78E, G108A
VL: B1 VL with R28S, Y41F
notes: humanized
B14: Hu200C9B9-5 (antibody, V domains shown)
VH: B1 VH with N28S, Y61F, A63V, G108A
VL: B1 VL with R28S
notes: humanized
B15: Hu195H8D10-12 (antibody, V domains shown)
VH: B1 VH with N79S
VL: B1 VL with Y41F, D75A
notes: humanized
B16: Hu200C9B9-7 (antibody, V domains shown)
VH: B1 VH with N28S, Y61F, A63V, G108A
VL: B1 VL with R28S, D75A
notes: humanized
B17: Hu195H8D10-15 (antibody, V domains shown)
VH: B1 VH with K78E, N79S, V95M
VL: B1 VL with D75A
notes: humanized
B18: Hu200C9B9-15 (antibody, V domains shown)
VH: B1 VH with N28S, E46N, Y61F, A63V, K78E, G108A
VL: B1 VL with R28S, D75A
notes: humanized
B19: Hu200C9B9-12 (antibody, V domains shown)
VH: B1 VH with N28S, E46N, Y61F, A63V, G108A
VL: B1 VL with R28S, Y41F, D75A
notes: humanized
B20: Hu195H8D10-1 (antibody, V domains shown)
VH: B1 VH with A49G, V99A, S100R
VL: B1 VL
notes: humanized
B21: Hu200C9B9-9 (antibody, V domains shown)
VH: B1 VH with N28S, E46N, Y61F, A63V, G108A
VL: B1 VL with R28S
notes: humanized
B22: Hu195H8D10-11 (antibody, V domains shown)
VH: B1 VH with N79S
VL: B1 VL with D75A
notes: humanized
B23: Hu200C9B9-8 (antibody, V domains shown)
VH: B1 VH with N28S, Y61F, A63V, G108A
VL: B1 VL with R28S, Y41F, D75A
notes: humanized
B24: Hu200C9B9-1 (antibody, V domains shown)
VH: B1 VH with N28S, A49G, Y61F, A63V, V99A, S100R, G108A
VL: B1 VL with R28S
notes: humanized
B25: Hu195H8D10-9 (antibody, V domains shown)
VH: B1 VH with N79S
VL: B1 VL
notes: humanized
B26: Hu200C9B9-11 (antibody, V domains shown)
VH: B1 VH with N28S, E46N, Y61F, A63V, G108A
VL: B1 VL with R28S, D75A
notes: humanized
B27: Hu200C9B9-13 (antibody, V domains shown)
VH: B1 VH with N28S, E46N, Y61F, A63V, K78E, G108A
VL: B1 VL with R28S
notes: humanized
B28: Hu195H8D10-13 (antibody, V domains shown)
VH: B1 VH with K78E, N79S, V95M
VL: B1 VL
notes: humanized

Molecular target: T1, cyno CCR8 (cynomolgus, UniProt G7NYJ2 1-355)
T1 construct: whole, on cells; also called cynomolgus CCR8 protein
Test: FACS, CHO-K1 cyno CCR8 cells

binding | Binder
binds | B1
binds | B2
binds | B3
binds | B4
binds | B5
binds | B6
binds | B7
binds | B8
binds | B9
binds | B10
binds | B11
binds | B12
binds | B13
binds | B14
binds | B15
binds | B16
binds | B17
binds | B18
binds | B19
binds | B20
binds | B21
binds | B22
binds | B23
binds | B24
binds | B25
binds | B26
binds | B27
binds | B28

Molecular target: T1, cyno CCR8
Test: FACS (MFI-PE) on CHO-K1 cyno CCR8 cells, bars at five doses [cont'd) C]

binding | Binder
binds | B1
binds | B2
binds | B3
binds | B4
binds | B7
binds | B8
binds | B10
binds | B12
binds | B15
binds | B17
binds | B20
binds | B22
binds | B25
binds | B28

Molecular target: T1, cyno CCR8
Test: FACS (MFI-PE) on CHO-K1 cyno CCR8 cells, bars at five doses [cont'd) D]

binding | Binder
binds | B5
binds | B6
binds | B9
binds | B11
binds | B13
binds | B14
binds | B16
binds | B18
binds | B19
binds | B21
binds | B23
binds | B24
binds | B26
binds | B27
